Measured values from patent EP1994944A1 (Laboratorios SALVAT, S.A., priority 2007, dated 2008).

Assay: general procedure: Fmoc solid-phase peptide synthesis; Rink amide resin; N,N'-diisopropylcarbodiimide
Conditions: whole synthesis, scale 0.36 mmol

With “2-(2-Amino-3-phenylpropionylamino)-N-{[({carbamoylmethyl-[2-(2,4-dichlorophenyl)ethyl]carbamoyl}methyl)-(3,3-diphenylpropyl)carbamoyl]-methyl}-N-[2-(2,4-dichiorophenyl)ethyl]-3-methylbutyramide” the “final HPLC purity” value (analytical RP-HPLC, UV 220 nm) was at least 98% purity, the isolated mass was 196 mg and the isolated yield was “yield 55%”.
